Test results from the supplement of paper PMC10849652.
The list shows a part of the results.

Chains of the proteins cited; added tags and fusions are not shown. Lines headed by an entry give the natural chain unless they say otherwise; changes in a name come on top.
UniProt P40121: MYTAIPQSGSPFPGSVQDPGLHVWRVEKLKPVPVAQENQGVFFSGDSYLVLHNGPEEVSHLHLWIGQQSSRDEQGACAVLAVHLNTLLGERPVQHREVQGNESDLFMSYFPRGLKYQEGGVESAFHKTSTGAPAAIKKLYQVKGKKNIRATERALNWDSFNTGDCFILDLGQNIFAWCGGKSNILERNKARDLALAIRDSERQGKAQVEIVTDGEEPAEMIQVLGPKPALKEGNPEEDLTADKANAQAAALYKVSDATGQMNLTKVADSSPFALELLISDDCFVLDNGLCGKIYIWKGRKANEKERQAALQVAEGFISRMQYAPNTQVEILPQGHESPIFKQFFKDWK
UniProt Q9H7E9: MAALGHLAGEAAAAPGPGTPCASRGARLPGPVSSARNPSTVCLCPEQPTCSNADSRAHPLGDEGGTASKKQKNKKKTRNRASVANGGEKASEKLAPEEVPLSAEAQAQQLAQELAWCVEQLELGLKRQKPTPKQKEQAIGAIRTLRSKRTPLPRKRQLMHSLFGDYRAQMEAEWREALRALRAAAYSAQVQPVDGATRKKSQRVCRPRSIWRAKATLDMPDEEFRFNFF
UniProt Q9HAS0: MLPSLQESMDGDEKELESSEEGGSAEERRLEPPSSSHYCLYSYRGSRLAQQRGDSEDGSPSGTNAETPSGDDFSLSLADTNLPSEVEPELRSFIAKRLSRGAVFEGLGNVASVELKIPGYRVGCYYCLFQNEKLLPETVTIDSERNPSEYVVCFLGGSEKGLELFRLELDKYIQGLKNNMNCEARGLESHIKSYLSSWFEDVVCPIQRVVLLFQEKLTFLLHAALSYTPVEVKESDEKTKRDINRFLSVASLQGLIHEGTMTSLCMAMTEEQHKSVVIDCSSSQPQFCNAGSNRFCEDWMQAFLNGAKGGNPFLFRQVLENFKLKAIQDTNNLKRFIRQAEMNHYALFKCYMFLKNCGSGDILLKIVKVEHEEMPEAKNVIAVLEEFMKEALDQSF
UniProt Q7Z7L8: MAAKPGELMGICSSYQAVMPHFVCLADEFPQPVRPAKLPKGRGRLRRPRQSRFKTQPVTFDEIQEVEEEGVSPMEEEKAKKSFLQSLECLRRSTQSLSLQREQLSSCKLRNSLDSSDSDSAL
UniProt P0C0L4: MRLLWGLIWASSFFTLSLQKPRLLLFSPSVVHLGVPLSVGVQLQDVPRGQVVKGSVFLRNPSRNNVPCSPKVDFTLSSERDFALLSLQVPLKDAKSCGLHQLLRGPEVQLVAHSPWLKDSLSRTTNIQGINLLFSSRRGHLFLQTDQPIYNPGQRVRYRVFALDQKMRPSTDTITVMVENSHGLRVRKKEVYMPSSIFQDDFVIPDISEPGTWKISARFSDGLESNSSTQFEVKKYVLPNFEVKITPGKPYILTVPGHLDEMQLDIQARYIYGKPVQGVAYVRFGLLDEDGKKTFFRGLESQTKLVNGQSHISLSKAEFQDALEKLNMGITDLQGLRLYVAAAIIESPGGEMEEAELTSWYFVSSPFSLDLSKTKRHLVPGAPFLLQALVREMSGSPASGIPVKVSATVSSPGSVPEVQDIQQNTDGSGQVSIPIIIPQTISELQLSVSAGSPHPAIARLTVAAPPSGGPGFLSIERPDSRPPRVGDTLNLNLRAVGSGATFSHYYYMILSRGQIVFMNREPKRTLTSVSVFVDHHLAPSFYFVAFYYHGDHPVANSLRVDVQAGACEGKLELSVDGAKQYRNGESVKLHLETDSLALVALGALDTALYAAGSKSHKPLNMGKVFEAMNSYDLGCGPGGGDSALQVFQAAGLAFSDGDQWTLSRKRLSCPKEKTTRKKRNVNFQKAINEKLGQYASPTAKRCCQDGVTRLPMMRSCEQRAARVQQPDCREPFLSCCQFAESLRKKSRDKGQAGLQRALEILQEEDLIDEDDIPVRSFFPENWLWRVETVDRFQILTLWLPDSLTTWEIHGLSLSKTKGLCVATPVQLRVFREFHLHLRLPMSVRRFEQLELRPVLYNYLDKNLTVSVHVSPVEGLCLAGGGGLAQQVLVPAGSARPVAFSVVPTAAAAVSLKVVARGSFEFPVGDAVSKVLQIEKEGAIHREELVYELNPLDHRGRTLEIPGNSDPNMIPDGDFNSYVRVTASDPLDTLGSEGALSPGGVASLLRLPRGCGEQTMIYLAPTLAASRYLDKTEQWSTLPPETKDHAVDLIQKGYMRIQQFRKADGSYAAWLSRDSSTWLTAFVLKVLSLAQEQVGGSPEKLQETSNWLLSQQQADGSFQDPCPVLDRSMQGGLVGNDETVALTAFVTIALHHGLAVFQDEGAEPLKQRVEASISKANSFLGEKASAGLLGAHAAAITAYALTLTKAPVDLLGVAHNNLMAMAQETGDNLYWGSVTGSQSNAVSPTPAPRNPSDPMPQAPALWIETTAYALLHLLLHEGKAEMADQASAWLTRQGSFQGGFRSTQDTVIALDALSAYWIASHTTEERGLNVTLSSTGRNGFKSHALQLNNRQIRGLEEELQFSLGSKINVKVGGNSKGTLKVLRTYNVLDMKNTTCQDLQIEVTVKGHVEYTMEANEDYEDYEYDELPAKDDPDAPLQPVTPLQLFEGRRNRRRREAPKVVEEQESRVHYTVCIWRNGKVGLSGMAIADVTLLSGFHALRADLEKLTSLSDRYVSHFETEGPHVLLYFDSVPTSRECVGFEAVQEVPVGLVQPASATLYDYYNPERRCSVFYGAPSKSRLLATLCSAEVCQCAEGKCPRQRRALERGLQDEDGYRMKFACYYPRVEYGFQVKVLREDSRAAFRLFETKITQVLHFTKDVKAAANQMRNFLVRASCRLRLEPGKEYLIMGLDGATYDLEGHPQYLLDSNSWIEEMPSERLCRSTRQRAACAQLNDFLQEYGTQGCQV
UniProt Q96B23: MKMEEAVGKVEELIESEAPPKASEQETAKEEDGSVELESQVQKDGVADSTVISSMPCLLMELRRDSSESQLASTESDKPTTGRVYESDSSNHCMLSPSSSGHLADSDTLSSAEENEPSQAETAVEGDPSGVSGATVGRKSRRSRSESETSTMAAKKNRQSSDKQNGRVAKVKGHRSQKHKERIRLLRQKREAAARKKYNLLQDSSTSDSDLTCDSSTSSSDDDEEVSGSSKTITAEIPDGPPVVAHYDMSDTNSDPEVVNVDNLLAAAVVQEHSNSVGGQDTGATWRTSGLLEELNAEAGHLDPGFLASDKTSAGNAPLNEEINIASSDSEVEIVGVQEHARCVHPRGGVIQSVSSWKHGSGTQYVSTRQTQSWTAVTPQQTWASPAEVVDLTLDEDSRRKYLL
UniProt Q5SNV9: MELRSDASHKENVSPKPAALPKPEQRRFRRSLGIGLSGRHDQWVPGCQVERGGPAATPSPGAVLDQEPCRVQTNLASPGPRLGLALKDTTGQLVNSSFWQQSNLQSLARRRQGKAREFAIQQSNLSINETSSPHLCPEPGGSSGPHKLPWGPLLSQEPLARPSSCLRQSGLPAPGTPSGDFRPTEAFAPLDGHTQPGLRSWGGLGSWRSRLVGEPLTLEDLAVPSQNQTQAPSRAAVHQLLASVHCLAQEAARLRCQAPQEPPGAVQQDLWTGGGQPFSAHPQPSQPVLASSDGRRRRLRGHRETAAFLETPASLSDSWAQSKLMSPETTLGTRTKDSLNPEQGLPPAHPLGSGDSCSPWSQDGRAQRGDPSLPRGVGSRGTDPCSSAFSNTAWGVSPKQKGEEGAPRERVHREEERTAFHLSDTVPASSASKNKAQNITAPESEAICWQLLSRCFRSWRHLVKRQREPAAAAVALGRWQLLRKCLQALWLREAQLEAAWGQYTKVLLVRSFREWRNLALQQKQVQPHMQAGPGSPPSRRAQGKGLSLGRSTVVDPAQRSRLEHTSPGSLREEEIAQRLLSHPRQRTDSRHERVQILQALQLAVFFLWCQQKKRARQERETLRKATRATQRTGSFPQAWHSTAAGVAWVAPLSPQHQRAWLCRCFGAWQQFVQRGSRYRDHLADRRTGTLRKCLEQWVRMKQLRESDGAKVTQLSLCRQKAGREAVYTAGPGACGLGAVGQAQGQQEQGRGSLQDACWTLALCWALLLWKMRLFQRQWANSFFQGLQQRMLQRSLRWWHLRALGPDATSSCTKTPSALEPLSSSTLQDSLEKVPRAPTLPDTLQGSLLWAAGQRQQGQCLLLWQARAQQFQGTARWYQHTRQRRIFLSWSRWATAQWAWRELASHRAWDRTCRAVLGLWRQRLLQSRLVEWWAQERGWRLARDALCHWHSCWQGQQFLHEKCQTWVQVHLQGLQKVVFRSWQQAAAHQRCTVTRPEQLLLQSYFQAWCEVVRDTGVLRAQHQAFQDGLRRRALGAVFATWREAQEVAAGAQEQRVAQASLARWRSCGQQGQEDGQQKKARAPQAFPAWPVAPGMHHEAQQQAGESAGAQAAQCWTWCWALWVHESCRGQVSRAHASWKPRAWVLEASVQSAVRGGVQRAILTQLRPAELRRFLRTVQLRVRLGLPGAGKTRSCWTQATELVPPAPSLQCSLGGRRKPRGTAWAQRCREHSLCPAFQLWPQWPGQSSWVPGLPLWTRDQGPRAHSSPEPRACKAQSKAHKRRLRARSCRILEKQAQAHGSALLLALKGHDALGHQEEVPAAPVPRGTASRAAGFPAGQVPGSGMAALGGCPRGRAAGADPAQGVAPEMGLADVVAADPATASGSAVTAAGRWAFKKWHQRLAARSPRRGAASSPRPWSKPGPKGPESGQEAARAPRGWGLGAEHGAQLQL
UniProt Q9NQ89: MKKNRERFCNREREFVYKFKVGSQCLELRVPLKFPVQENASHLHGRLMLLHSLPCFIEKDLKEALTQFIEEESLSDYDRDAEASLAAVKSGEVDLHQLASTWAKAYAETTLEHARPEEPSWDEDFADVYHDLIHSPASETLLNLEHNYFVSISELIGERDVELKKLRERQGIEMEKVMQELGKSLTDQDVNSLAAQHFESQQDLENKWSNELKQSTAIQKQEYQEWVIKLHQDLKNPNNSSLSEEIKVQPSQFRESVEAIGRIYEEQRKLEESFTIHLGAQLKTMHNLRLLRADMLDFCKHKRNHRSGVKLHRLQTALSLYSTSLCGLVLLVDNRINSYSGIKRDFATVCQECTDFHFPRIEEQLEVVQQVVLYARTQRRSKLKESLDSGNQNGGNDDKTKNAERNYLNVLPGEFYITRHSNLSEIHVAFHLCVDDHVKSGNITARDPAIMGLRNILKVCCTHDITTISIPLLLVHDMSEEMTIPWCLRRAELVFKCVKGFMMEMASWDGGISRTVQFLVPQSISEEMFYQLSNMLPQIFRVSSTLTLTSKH
UniProt Q32NC0: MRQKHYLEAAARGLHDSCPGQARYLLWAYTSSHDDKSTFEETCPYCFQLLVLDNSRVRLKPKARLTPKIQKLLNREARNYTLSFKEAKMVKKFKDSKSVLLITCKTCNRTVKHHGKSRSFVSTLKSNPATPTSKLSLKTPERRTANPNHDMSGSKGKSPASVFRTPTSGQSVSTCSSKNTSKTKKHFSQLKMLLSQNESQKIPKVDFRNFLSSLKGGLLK
UniProt Q9NSK7: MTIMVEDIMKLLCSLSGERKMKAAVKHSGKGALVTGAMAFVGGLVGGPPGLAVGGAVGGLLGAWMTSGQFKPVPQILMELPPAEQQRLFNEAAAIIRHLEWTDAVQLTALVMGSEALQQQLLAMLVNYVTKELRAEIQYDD
UniProt Q13554, whole entry, looked up: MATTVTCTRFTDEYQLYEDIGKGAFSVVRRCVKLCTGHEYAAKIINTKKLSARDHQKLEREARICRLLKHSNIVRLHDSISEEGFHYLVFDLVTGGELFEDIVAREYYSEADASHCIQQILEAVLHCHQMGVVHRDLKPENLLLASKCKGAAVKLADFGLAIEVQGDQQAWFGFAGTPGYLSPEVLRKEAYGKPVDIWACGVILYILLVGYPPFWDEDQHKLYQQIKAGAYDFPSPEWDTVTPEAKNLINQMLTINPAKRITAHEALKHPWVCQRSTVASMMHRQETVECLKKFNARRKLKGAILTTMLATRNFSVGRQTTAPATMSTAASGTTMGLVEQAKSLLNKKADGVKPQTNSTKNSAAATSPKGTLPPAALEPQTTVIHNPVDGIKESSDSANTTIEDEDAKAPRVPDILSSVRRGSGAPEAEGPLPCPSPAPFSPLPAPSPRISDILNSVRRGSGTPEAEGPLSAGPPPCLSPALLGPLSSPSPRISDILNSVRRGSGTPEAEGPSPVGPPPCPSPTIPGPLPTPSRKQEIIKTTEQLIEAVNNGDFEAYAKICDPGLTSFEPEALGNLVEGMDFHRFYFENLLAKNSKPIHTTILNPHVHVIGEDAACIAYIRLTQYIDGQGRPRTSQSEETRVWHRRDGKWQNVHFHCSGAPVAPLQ
UniProt Q9BVC5: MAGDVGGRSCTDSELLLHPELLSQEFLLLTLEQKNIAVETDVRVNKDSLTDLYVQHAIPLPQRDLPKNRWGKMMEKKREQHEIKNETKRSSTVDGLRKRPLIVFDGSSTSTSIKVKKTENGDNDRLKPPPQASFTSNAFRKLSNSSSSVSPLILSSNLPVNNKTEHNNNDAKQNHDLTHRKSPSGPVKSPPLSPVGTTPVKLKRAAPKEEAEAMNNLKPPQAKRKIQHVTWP

How the values were obtained:
Assay in all cases: log2 fold change, soluble protein after heating vs DMSO (PISA); higher = thermal stabilisation; K562 lysate, 10 uM; active = over 0.2 and 3.5 SD of the protein, either way, in both replicates (recomputed)
[1] = compound: CS(=O)(=O)CCNCc1ccc(-c2ccc3ncnc(Nc4ccc(OCc5cccc(F)c5)c(Cl)c4)c3c2)o1 [lapatinib]
Method in brief: (§1)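 Thermal stability, expressed as log-two fold change relative to solvent controls, is given from duplicates. Crude K562 extract in PBS pH 7.4 with 1 mM MgCl2, at 1 mg/mL protein, was treated with 10 μM compound for 30 min and heated in aliquots for 3 min across 48°C-58°C. After pooling, adjustment to 0.5% NP-40 at 4°C and centrifugation at 21,000xg for 90 min, supernatant protein was measured by TMTpro 16plex LC-MS/MS with channel sums equalised.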

[2] = compound: CS(=O)(=O)N1CCN(Cc2cc3nc(-c4cccc5[nH]ncc45)nc(N4CCOCC4)c3s2)CC1 [pictilisib]
Method in brief: as §1

[3] = compound: C[C@@H](Oc1cc(-c2cnn(C3CCNCC3)c2)cnc1N)c1c(Cl)ccc(F)c1Cl [crizotinib]
Method in brief: as §1

[4] = compound: C[C@H](C1=CC=C(C=C1)C(=O)NC2=C3C=CNC3=NC=C2)N
Method in brief: as §1

[5] = compound: C[C@H](Nc1ncnc2nc[nH]c12)c1cc2cccc(Cl)c2c(=O)n1-c1ccccc1 [duvelisib]
Method in brief: as §1

[6] = compound: Cc1cc(Nc2cc(CN3CCOCC3)c3nc(C)c(Cc4ccc(Cl)cc4F)n3n2)n[nH]1 [gandotinib]
Method in brief: as §1

[7] = compound: Cc1cc(Nc2cc(N3CCN(C)CC3)nc(Sc3ccc(NC(=O)C4CC4)cc3)n2)n[nH]1 [tozasertib]
Method in brief: as §1

[8] = compound: Cc1ccc(-n2nc(C(C)(C)C)cc2NC(=O)Nc2ccc(OCCN3CCOCC3)c3ccccc23)cc1 [doramapimod]
Method in brief: as §1

[9] = compound: Cc1ccc(NC(=O)c2ccc(CN3CC[C@H](N(C)C)C3)c(C(F)(F)F)c2)cc1Nc1nccc(-c2cncnc2)n1 [bafetinib]
Method in brief: as §1

[10] = compound: Cc1cccc(CC(=O)N2CCc3c2ccc(-c2cn(C)c4ncnc(N)c24)c3F)n1
Method in brief: as §1

Measured: log2 fold change

C12orf29 (UniProt Q8N999)
inactive: [1] -0.054 | [2] 0.033 | [3] -0.057 | [4] -0.062 | [5] -0.002 | [6] 0.031 | [7] 0.02 | [8] 0.015 | [9] -0.154 | [10] 0.173

CAP1 (UniProt Q01518)
inactive: [1] -0.027 | [2] 0.011 | [3] -0.009 | [4] -0.005 | [5] -0.023 | [6] -0.004 | [7] -0.04 | [8] -0.001 | [9] 0.017 | [10] -0.029

CAPG (UniProt P40121)
inactive: [1] 0 | [2] -0.004 | [3] 0.003 | [4] -0.016 | [5] 0.007 | [6] -0.018 | [7] -0.01 | [8] -0.015 | [9] 0.003 | [10] 0.003

C8orf33 isoform 2 (UniProt Q9H7E9)
inactive: [1] -0.029 | [2] -0.037 | [3] -0.041 | [4] 0.01 | [5] 0.109 | [6] -0.081 | [7] 0.008 | [8] 0.012 | [9] -0.044 | [10] -0.047

C4orf33 (UniProt Q8N1A6)
inactive: [1] -0.005 | [2] 0.005 | [3] -0.047 | [4] -0.133 | [5] 0.033 | [6] 0.06 | [7] 0.074 | [8] 0.02 | [9] -0.067 | [10] 0.121

CAPN2 (UniProt P17655)
inactive: [1] 0.028 | [2] -0.001 | [3] -0.02 | [4] 0.068 | [5] -0.01 | [6] 0.03 | [7] 0.008 | [8] 0.028 | [9] 0.012 | [10] -0.032

C17orf75 (UniProt Q9HAS0)
inactive: [1] -0.023 | [2] -0.036 | [3] -0.035 | [4] -0.099 | [5] 0.032 | [6] 0.023 | [7] 0.091 | [8] 0.011 | [9] 0.007 | [10] 0.098

CAMK1 (UniProt Q14012)
inactive: [1] -0.037 | [2] -0.058 | [3] -0.078 | [4] -0.145 | [5] -0.042 | [6] 0.187 | [7] 0.05 | [8] -0.006 | [9] -0.047
active: [10] 0.314

C11orf96 (UniProt Q7Z7L8)
inactive: [1] -0.044 | [2] -0.026 | [3] -0.004 | [4] -0.025 | [5] -0.041 | [6] 0.036 | [8] -0.073 | [9] -0.027 | [10] 0.107

CABLES2 (UniProt Q9BTV7)
inactive: [1] -0.03 | [2] 0.063 | [3] -0.023 | [7] 0.064 | [8] 0.172 | [9] -0.046

C1orf109 (UniProt Q9NX04)
inactive: [1] 0.069 | [3] -0.028 | [5] 0.11 | [7] 0.089 | [8] 0.037

C4A (UniProt P0C0L4)
inactive: [1] -0.109 | [2] -0.122 | [3] -0.009 | [4] -0.074 | [5] -0.049 | [6] 0.159 | [7] -0.036 | [8] -0.007 | [9] -0.041 | [10] 0.099

BTRC (UniProt Q9Y297)
inactive: [1] 0.01 | [2] -0.008 | [4] 0.018 | [6] 0.073 | [7] -0.01 | [9] -0.027 | [10] 0.065

C1orf174 (UniProt Q8IYL3)
inactive: [1] -0.016 | [2] -0.04 | [3] 0.046 | [4] -0.054 | [5] 0.035 | [6] 0.042 | [8] -0.031 | [9] 0.051 | [10] -0.01

C16orf70 (UniProt Q9BSU1)
inactive: [1] -0.002 | [2] -0.076 | [3] 0.058 | [5] -0.013 | [7] 0.018 | [8] 0.116 | [9] -0.045

C18orf25 isoform 2 (UniProt Q96B23)
inactive: [1] -0.001 | [2] -0.235 | [4] -0.017 | [5] 0.017 | [6] 0.061 | [7] 0.001 | [9] -0.025 | [10] -0.021

CAP1 (UniProt Q5T0R8)
inactive: [1] -0.202 | [4] -0.188 | [6] -0.082 | [10] 0.027

CAND1 (UniProt F5H6I6)
inactive: [1] -0.043 | [2] -0.07 | [3] -0.127 | [5] -0.022 | [7] -0.077 | [8] -0.124 | [9] -0.042

CAPNS1 (UniProt K7ES78)
inactive: [1] 0.162 | [3] 0.158 | [5] 0.17 | [8] -0.08

C1orf167 isoform 2 (UniProt Q5SNV9)
inactive: [1] -0.046 | [2] 0.02 | [3] -0.201 | [4] -0.159 | [5] 0.015 | [6] 0.112 | [8] 0.256 | [9] -0.297 | [10] 0.279

CA2 (UniProt P00918)
inactive: [1] 0.002 | [2] -0.035 | [3] 0.07 | [5] 0.058 | [7] -0.057 | [8] -0.013 | [9] 0.034

CAB39L (UniProt Q9H9S4)
inactive: [1] -0.017 | [2] -0.048 | [3] -0.092 | [4] -0.005 | [5] 0.079 | [6] -0.037 | [8] -0.008 | [9] -0.008 | [10] 0.057

C12orf4 (UniProt Q9NQ89)
inactive: [1] -0.159 | [2] -0.022 | [3] -0.003 | [7] 0.042 | [8] 0.027 | [9] -0.014

C18orf21 (UniProt Q32NC0)
inactive: [1] -0.153 | [2] -0.071 | [3] -0.005 | [4] -0.005 | [5] 0 | [6] -0.063 | [8] -0.086 | [9] 0.046 | [10] 0.111

Copied from the results shown (2 entries):
C1orf167 isoform 2 (UniProt Q5SNV9)
inactive: [1] -0.046 | [2] 0.02 | [3] -0.201 | [4] -0.159 | [5] 0.015 | [6] 0.112 | [8] 0.256 | [9] -0.297 | [10] 0.279

CA2 (UniProt P00918)
inactive: [1] 0.002 | [2] -0.035 | [3] 0.07 | [5] 0.058 | [7] -0.057 | [8] -0.013 | [9] 0.034

(cont.)

C1GALT1 (UniProt Q9NS00)
inactive: [1] 0.241 | [3] -0.066 | [4] -0.072 | [5] -0.043 | [6] -0.013 | [8] 0.081 | [10] -0.067

C2orf69 (UniProt Q8N8R5)
inactive: [1] 0.033 | [2] -0.017 | [3] 0.017 | [4] -0.036 | [5] -0.007 | [6] 0.068 | [7] 0.022 | [8] 0.022 | [9] 0.06 | [10] -0.043

C19orf12 (UniProt Q9NSK7)
inactive: [1] -0.018 | [3] -0.102 | [5] -0.049 | [7] 0.013 | [8] 0.157

C1orf131 isoform 5 (UniProt Q8NDD1)
inactive: [1] 0.065 | [3] -0.006 | [4] -0.16 | [5] 0.028 | [6] 0.076 | [7] 0.03 | [8] -0.008 | [10] 0.177

CAMK2B (UniProt Q13554)
inactive: [1] 0.024 | [2] 0.053 | [4] -0.045 | [5] -0.011 | [6] 0.072 | [7] -0.046 | [8] -0.03 | [9] 0.003 | [10] 0.055

C2orf49 (UniProt Q9BVC5)
inactive: [1] 0.029 | [2] 0.043 | [3] 0.022 | [4] 0.001 | [5] 0.006 | [6] 0.008 | [7] 0.041 | [8] -0.029 | [9] -0.025 | [10] 0.01

C19orf25 (UniProt Q9UFG5)
inactive: [1] 0.028 | [2] -0.052 | [3] -0.051 | [4] 0.122 | [5] 0.029 | [6] -0.12 | [8] -0.016 | [9] -0.083 | [10] -0.046
